US20250000988A1 (priority 2021, published 2025)

Assay: general procedure: Fmoc solid-phase peptide synthesis; MBHA resin (sub: 0.27 mmol/g)
Settings: whole synthesis, scale of the general procedure 0.5 mmol

Substance	final purity (method not given)
(β-Ala)-Sar10-Ala (hArg) Asp-SEQ ID NO:2 (Cys-HyP-Leu-Val-Asn-Pro-Leu-Cys-Leu-His-Pro-(D-Asp)-Trp-hArg-Hcys), molecular scaffold: TATA	95.8%
(β-Ala)-Sar10-Ala (hArg) Asp-SEQ ID NO:4 (Hcys-HyP-Leu-Val-Asn-Pro-Leu-Cys-Leu-His-Pro-(D-Asp)-Trp-hArg-Cys), molecular scaffold: TATA	96.8%
